Results are given in words; binding and its absence hold for the method and conditions named. Binding seen in cells or lysates may run through a third protein. A yes stands for co-enrichment or nearness to the bait. Other partners may have been found.

Sequences of proteins named here, by UniProt entry; tags and fusion partners are left off.
UniProt Q80U78: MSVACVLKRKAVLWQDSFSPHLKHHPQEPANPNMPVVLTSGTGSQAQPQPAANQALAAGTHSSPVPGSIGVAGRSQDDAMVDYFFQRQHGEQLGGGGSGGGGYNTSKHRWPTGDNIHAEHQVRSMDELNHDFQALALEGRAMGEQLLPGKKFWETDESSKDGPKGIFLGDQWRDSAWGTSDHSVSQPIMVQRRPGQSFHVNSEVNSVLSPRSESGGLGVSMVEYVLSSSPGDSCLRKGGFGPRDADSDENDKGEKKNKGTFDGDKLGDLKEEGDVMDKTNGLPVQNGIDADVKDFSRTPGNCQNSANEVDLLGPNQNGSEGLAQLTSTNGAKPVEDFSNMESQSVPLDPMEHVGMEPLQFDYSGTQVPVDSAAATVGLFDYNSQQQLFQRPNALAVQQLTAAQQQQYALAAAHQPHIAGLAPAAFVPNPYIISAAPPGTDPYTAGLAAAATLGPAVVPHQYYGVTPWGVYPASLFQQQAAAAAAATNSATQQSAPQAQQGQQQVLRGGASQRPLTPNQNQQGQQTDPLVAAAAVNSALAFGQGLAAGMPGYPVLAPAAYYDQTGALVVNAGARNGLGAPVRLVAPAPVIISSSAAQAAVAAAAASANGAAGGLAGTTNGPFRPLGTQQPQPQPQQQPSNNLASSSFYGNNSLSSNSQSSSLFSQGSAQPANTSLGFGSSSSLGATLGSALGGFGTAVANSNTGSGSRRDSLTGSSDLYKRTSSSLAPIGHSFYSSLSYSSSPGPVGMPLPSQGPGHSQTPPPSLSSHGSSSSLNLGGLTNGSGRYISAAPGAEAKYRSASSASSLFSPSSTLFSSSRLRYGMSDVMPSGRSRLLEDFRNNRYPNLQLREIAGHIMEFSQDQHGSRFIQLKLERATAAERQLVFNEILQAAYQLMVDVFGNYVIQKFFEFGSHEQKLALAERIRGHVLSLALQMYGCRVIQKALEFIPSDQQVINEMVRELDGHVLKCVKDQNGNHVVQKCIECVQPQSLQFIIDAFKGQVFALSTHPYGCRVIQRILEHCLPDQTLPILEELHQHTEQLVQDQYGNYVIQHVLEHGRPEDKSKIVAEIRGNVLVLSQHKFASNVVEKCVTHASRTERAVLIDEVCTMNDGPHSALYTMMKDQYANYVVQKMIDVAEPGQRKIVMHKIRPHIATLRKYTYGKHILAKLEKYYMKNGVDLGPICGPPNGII
UniProt Q6ZQ08: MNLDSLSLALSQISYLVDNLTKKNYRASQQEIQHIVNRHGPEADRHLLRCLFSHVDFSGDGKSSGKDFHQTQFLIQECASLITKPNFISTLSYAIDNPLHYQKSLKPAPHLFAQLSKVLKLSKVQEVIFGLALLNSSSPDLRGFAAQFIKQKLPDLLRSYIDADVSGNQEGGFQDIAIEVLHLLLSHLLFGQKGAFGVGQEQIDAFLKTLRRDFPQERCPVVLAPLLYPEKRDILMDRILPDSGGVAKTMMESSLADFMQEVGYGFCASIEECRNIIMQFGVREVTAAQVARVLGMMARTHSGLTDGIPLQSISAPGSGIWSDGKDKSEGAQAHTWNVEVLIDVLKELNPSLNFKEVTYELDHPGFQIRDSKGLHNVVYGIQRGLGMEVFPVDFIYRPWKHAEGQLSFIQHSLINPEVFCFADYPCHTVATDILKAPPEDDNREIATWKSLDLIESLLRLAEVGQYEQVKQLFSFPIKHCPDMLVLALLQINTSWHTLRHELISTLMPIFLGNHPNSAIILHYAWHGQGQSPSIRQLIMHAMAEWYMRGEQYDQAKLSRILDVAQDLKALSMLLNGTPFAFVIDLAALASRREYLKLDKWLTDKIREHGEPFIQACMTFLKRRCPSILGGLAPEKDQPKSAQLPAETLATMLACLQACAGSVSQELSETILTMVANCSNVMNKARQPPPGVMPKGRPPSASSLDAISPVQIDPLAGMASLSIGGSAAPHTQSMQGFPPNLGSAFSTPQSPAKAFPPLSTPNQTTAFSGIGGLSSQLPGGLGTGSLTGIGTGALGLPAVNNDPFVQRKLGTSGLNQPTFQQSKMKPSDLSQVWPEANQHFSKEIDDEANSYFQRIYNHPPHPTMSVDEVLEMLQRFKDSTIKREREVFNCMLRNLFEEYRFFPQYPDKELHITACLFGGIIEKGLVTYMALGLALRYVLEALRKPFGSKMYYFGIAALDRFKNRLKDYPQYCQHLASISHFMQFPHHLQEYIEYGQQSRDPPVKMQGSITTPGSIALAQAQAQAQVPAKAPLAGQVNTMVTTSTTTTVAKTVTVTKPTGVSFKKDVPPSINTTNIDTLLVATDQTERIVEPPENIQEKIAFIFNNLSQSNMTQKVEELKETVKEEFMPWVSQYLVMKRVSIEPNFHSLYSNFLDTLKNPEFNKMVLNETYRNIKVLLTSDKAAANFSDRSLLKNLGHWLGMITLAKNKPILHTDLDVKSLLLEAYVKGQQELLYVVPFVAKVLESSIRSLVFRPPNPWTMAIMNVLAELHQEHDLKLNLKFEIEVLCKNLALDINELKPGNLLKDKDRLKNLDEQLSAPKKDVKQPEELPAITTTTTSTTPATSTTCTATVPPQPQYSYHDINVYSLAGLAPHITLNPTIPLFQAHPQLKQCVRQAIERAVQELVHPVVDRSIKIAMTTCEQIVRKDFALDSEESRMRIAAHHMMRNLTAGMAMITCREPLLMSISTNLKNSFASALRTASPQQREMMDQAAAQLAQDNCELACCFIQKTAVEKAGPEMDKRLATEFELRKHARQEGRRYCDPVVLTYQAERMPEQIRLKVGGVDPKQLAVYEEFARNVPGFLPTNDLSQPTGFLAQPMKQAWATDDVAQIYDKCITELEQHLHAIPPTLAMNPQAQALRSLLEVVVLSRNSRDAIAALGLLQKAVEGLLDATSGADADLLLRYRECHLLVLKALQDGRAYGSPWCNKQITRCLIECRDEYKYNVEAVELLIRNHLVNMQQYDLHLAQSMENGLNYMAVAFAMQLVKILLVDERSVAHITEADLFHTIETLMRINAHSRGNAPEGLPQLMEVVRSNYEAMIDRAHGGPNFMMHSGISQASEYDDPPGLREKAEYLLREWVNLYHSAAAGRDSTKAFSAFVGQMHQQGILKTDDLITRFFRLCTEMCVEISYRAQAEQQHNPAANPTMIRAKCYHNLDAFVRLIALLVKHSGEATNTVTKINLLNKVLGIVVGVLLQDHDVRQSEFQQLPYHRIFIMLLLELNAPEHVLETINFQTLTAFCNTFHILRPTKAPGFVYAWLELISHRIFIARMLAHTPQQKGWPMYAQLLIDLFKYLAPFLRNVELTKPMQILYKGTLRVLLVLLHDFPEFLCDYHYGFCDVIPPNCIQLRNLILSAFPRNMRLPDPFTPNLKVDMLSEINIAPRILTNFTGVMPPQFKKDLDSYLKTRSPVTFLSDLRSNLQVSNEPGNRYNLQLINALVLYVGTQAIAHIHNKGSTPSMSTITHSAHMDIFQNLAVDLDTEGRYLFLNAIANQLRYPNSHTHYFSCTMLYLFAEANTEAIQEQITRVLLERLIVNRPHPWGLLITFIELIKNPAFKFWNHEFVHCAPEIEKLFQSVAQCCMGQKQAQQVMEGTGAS
UniProt Q9CZY3: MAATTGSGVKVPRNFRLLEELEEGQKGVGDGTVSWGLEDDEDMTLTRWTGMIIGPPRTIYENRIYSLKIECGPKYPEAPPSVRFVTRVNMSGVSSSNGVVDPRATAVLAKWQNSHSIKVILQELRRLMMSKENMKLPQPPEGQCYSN
UniProt Q8CJG0: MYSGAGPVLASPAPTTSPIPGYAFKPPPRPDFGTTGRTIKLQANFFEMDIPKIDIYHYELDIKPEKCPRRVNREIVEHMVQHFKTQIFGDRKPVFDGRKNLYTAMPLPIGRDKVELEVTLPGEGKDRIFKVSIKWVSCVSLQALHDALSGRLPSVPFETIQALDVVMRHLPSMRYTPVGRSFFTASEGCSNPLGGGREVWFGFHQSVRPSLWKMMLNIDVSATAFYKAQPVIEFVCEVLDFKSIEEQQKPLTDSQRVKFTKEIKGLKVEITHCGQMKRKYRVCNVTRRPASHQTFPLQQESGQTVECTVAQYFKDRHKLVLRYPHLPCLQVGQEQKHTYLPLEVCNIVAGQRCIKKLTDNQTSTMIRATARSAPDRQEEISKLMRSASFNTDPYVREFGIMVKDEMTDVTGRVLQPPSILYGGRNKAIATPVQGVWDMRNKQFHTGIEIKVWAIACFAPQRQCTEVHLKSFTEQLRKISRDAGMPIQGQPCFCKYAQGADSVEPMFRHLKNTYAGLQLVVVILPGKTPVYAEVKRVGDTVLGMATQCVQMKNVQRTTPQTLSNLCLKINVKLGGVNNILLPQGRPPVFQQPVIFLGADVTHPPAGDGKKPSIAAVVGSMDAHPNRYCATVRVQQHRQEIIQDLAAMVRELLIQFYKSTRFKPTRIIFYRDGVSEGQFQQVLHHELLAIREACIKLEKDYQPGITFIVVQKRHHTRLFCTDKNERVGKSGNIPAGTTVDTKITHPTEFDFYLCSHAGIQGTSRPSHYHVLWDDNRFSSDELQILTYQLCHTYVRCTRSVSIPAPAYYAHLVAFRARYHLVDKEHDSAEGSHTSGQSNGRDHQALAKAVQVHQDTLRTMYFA

Assay [1] addresses T1, TRIM32 (endogenous, mouse) (mouse (endogenous in NSCs and brain)) (UniProt Q8CH72).
T1 sequence: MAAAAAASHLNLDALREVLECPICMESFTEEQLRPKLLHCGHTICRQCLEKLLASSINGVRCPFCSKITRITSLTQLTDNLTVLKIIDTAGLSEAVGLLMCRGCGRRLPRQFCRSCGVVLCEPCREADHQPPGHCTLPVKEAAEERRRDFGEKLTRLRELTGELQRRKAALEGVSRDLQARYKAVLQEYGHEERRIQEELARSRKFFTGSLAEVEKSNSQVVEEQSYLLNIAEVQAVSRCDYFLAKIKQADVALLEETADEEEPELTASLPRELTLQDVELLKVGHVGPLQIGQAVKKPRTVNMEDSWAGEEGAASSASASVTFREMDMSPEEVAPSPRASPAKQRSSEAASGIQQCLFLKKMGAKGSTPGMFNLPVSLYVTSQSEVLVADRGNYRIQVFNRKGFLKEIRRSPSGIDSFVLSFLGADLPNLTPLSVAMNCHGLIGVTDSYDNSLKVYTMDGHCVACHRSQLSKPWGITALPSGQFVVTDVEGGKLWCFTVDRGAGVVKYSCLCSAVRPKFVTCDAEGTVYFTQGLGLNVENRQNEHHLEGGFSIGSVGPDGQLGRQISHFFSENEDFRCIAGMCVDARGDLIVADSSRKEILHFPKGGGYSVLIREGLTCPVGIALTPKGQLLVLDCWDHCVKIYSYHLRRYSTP
Nature of the assay: affinity purification with mass spectrometry; TRIM32 precipitated with anti-TRIM32 antibodies (1137/3149) on protein-G Sepharose from cytoplasmic and nuclear fractions of mouse NSCs under maintenance conditions or 3 days after induction of neuronal differentiation; Benzonase added; eluted with two TRIM32 peptides; LC-MS/MS; negative control anti-EGFP on whole-mouse brain lysate; conducted only once.

Assay [2] has as its target T1, TRIM32 (endogenous, mouse) (mouse (endogenous in NSCs and brain)). The assay can be described thus: affinity purification with mass spectrom.

With “Pumilio 1 (endogenous, mouse) (from UniProt Q80U78 1-1189)”, in assay [1], the binding result was “binds”.
On the same count and under the same terms, to CNOT1 (from UniProt Q6ZQ08 1-2375) belongs “binds”.
Regarding UBE2V1 (from UniProt Q9CZY3 1-147), the binding entry in assay [2] is “binds”.
On the same count and under the same terms, to “tropomyosin-1α (from UniProt P58771 1-284)” belongs “binds”.
On to “Argonaute 2 (endogenous, mouse) (from UniProt Q8CJG0 1-860)”, for which the binding result in assay [1] is “binds”.

These data come from PMC4357729.
